Library screen at single concentrations

Sequences of proteins named here, by UniProt entry; tags and fusion partners are left off. Residues count along the entry.
UniProt Q8IDJ8, 1-583: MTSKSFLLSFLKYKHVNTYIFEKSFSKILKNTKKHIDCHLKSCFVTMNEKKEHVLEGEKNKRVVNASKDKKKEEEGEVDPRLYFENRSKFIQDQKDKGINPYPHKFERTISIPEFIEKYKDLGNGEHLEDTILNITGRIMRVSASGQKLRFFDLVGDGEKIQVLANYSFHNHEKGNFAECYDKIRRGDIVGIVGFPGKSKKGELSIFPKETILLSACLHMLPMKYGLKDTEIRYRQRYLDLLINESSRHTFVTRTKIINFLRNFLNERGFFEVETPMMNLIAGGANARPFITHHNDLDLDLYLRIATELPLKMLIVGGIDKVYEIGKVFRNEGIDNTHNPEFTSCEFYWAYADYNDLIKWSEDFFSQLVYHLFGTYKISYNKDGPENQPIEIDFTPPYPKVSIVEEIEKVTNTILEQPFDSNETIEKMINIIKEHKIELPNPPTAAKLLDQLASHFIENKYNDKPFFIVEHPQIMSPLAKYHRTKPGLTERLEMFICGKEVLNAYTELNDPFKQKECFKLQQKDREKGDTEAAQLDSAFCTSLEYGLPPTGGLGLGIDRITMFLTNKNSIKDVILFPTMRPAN
UniProt A4I591, 1-473: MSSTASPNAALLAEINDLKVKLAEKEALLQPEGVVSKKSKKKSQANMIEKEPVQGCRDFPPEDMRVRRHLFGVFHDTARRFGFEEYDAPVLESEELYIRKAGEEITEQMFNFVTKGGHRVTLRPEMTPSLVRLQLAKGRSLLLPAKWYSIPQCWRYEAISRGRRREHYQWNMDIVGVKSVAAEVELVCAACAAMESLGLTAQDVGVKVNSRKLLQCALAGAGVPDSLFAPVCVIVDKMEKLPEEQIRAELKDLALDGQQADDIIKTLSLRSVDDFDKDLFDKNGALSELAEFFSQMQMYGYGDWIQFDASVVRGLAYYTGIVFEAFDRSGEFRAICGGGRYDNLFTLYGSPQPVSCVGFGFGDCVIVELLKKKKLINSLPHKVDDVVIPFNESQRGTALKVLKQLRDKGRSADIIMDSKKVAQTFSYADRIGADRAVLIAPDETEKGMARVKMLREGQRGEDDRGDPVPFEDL
UniProt Q4DA54, 1-478: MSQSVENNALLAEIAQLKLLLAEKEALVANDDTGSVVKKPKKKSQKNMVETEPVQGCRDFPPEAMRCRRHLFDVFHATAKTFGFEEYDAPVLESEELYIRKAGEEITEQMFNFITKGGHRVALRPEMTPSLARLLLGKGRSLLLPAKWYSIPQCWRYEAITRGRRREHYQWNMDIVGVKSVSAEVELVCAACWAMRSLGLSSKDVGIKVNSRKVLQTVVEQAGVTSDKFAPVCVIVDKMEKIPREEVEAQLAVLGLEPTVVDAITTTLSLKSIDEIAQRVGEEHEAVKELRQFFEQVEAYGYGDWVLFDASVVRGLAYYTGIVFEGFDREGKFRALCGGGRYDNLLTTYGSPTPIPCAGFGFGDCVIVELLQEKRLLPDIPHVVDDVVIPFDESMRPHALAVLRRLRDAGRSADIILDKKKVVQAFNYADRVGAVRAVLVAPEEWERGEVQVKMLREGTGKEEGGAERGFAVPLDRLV
UniProt P9WPC5, whole entry: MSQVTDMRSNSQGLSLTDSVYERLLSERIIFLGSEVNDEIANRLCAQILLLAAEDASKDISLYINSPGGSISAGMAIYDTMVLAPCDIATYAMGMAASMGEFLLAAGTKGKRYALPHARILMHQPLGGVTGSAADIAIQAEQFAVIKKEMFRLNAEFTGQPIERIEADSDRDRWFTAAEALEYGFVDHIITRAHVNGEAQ
UniProt P9WPC3, whole entry partner: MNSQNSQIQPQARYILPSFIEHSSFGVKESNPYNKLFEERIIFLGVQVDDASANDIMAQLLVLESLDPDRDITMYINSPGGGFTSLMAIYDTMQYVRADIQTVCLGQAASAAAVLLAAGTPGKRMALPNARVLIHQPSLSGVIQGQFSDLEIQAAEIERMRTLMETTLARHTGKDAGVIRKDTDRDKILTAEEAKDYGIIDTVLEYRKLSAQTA

PfKRS1: 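Lysine-tRNA ligase, Plasmodium falciparum 3D7 (UniProt Q8IDJ8). Enzyme assay of the cytosolic lysyl-tRNA synthetase in 384-well plates, read by luminescence. Concentration: 30 µM. Higher reads as stronger inhibition, judged from the few compounds that gave an IC50. Size under these conditions: about 69,000 compounds, about 49 of them at 50% or above in at least one test.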
LiHisRS: 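Histidine-tRNA ligase, Leishmania infantum (UniProt A4I591). Enzyme assay of histidyl-tRNA synthetase; the read-out is not stated. Tested at 30 µM. Higher reads as stronger inhibition (inferred: compounds with an IC50 in retests scored well above the rest). The assay is labelled LdHisRS but filed under L. infantum. Size under these conditions: about 69,000 compounds, about 410 of them at 50% or above in at least one test.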
TcHisRS: 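Histidine-tRNA ligase, Trypanosoma cruzi CL Brener (UniProt Q4DA54). Enzyme assay of histidyl-tRNA synthetase; the read-out is not stated. Concentration: 30 µM. Direction is inferred from retests: higher values go with stronger inhibition. Size under these conditions: about 69,000 compounds, about 31 of them at 50% or above in at least one test.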
Leishmania in macrophages: 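Cell assay of Leishmania donovani living inside macrophages; the read-out is not stated. Compounds at 30 µM. The record gives no direction; compounds that gave an IC50 in retests scored well above the rest, so higher reads as stronger inhibition. About 69,000 compounds were tested under these conditions; 1.5% (about 1,000) showed 50% or more at least once.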
ClpP1P2: 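Protease assay of ClpP1P2, read by the AMC dye that it sets free. Target: ClpP1P2, Mycobacterium tuberculosis (UniProt P9WPC5 and UniProt P9WPC3). Tested at 50 µM. Direction is inferred from only a few compounds that gave an IC50; most scored high, so higher reads as stronger inhibition. Most other retested compounds had strongly negative values. Of about 69,000 compounds tested this way, about 10 (0.015%) reached 50% or more in at least one test.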

Results are given as percent effect. How 0% and 100% were set is not recorded. Most values in the screen are low, and negative values occur. The compounds are a random part of those screened.

compound: O=C(NC[C@H]1OC[C@@H]2CN(Cc3ccco3)CC[C@@H]21)c1cscn1
PfKRS1: 3.889
LiHisRS: 13.83
TcHisRS: 10.05
ClpP1P2: -0.305

compound: CC(C)N1Cc2c(C(=O)N3CCN(C)CC3)nn(C)c2C1
PfKRS1: 3.069
LiHisRS: 6.364
TcHisRS: 6.349
Leishmania in macrophages: 40.24
ClpP1P2: -19.21

compound: COC(=O)c1ncccc1N1CCN(C(=O)CN2CCOCC2)CC1
PfKRS1: 4.351
LiHisRS: 0
TcHisRS: 3.571
Leishmania in macrophages: 13.75
ClpP1P2: 4.821

compound: OCCN1CCN(CC(O)c2cc(Cl)ccc2Cl)CC1 (stereo not drawn)
PfKRS1: 0.1997
LiHisRS: 12.68
TcHisRS: 2.762
Leishmania in macrophages: -7.574
ClpP1P2: 11.3

compound: O=C(O)C(F)(F)F.[H][C@@]12CCN(Cc3scnc3C)C[C@]1(c1nc(C)no1)CCO2
Leishmania in macrophages: 6.081

compound: CCOC(=O)c1n[nH]cc1-c1cncn1CCn1nc(C)c(C)c1C.Cl
Leishmania in macrophages: -2.982

compound: COc1cccc(F)c1C(=O)N1C[C@@H](CN(C)CCO)[C@@H](CO)C1
PfKRS1: 4.246
LiHisRS: 17.92
TcHisRS: -6.695
Leishmania in macrophages: 7.245
ClpP1P2: -11.89

compound: CC(NC(=O)NCCCN1CCCC1)c1nncn1C (stereo not drawn)
PfKRS1: 1.437
LiHisRS: 7.273
TcHisRS: 2.924
Leishmania in macrophages: -2.042
ClpP1P2: -21.98

compound: CCCc1n[nH]c(C2CN(CCNS(=O)(=O)CC)CCO2)n1 (stereo not drawn)
PfKRS1: 0.3629
LiHisRS: 16.22
TcHisRS: 5.639
Leishmania in macrophages: 3.009
ClpP1P2: 13.63

compound: CC(C)c1nn(CC(=O)N2CCCC2)c(=O)c2c1cnn2C(C)(C)C
PfKRS1: -2.053
LiHisRS: 8.264
TcHisRS: -1.02
Leishmania in macrophages: -3.584
ClpP1P2: 7.181

compound: O=C(NCCc1nc2ccccc2s1)c1coc(CN2CCOCC2)c1
PfKRS1: -3.366
LiHisRS: 1.493
TcHisRS: 4.255
Leishmania in macrophages: -0.1212
ClpP1P2: 10.33

compound: COc1ccc(NC(C)=O)cc1OCc1cccnc1
PfKRS1: 3.985
LiHisRS: 23.4
TcHisRS: 9.827
Leishmania in macrophages: 33.09
ClpP1P2: 6.727

compound: O=C(O)C(F)(F)F.[H][C@@]12CCCO[C@]1([H])[C@H](OC)CN2S(=O)(=O)c1cn(C)cn1
Leishmania in macrophages: 21.5

compound: CCS(=O)(=O)N1CCc2onc(CNc3ncccn3)c2C1
PfKRS1: 6.84
LiHisRS: 23.29
TcHisRS: 3.96
Leishmania in macrophages: 13.32
ClpP1P2: -1.531

compound: Cc1ccc(-c2nnc(CN3CCOCC(CO)C3)o2)n1C (stereo not drawn)
PfKRS1: -1.255
LiHisRS: 16.42
TcHisRS: 7.447
Leishmania in macrophages: 30.75
ClpP1P2: 0.7439

compound: FC(F)(F)c1cccnc1N1CCC(OC2CCOCC2)CC1
PfKRS1: 0.2067
LiHisRS: 10.96
TcHisRS: 7.65
Leishmania in macrophages: -20.48
ClpP1P2: -6.286

compound: Cc1n[nH]cc1CNC(C)c1cccc(N2CCCC2=O)c1.Cl (stereo not drawn)
Leishmania in macrophages: -11.18

compound: CCCc1nc(C(=O)N2CCCn3nc(CCC(=O)O)cc3C2)cs1
PfKRS1: -2.266
LiHisRS: 25
TcHisRS: 5.833
Leishmania in macrophages: -13.49
ClpP1P2: -9.941

compound: O=c1[nH]ccn1CCCN1CC=C(c2cnn(-c3ccccc3)c2)CC1
PfKRS1: 2.58
LiHisRS: 11.46
TcHisRS: 8.939
Leishmania in macrophages: 9.893
ClpP1P2: 1.102

compound: CCS(=O)(=O)N1CCOC2(CCCN(c3cnccn3)C2)C1.O=C(O)C(F)(F)F (stereo not drawn)
Leishmania in macrophages: 26.09

compound: CCC(C)(C)N(C)CCOc1cccc(S(C)(=O)=O)c1
PfKRS1: 2.088
LiHisRS: 15.96
TcHisRS: 9.091
Leishmania in macrophages: 37.4
ClpP1P2: 3.679

compound: Cc1occc1C(=O)N1CCC[C@]2(C[C@@H](OCc3ccncc3)CO2)C1
PfKRS1: -2.99
LiHisRS: 13.21
TcHisRS: 2.703
ClpP1P2: 15.1

compound: CC(CCN1CCn2nc(CNC(=O)N(C)C)cc2C1)c1ccccc1 (stereo not drawn)
PfKRS1: 2.498
LiHisRS: 23.08
TcHisRS: 3.333
Leishmania in macrophages: 4.882
ClpP1P2: -12.59

compound: Cc1ccc(CN2CC3(CCNCC3)CCC2=O)c(F)c1F
PfKRS1: 1.207
LiHisRS: 14.29
TcHisRS: 9.184
Leishmania in macrophages: 9.451
ClpP1P2: -1.184

compound: CCCN1C(=O)[C@H]2CC[C@@H]1CN(S(=O)(=O)c1cccc(Cl)c1)C2
PfKRS1: 6.131
LiHisRS: 15.93
TcHisRS: 0
ClpP1P2: -4.513

2 of the entries, repeated:

For Cc1ccc(CN2CC3(CCNCC3)CCC2=O)c(F)c1F the result was PfKRS1: 1.207%; LiHisRS: 14.29%; TcHisRS: 9.184%; Leishmania in macrophages: 9.451%; ClpP1P2: -1.184%.
For O=c1[nH]ccn1CCCN1CC=C(c2cnn(-c3ccccc3)c2)CC1 the result was PfKRS1: 2.58%; LiHisRS: 11.46%; TcHisRS: 8.939%; Leishmania in macrophages: 9.893%; ClpP1P2: 1.102%.

From ChEMBL document CHEMBL3988442, “University of Dundee, Small-Polar-MMV Screening Library” (2021).